From patent US20190300604A1 (ASCLEPIUMM TAIWAN, published 2019)
Numbering of substitutions follows the chain as printed. Results are given in words; binding and its absence hold for the method and conditions named. Some binding calls cover weakened binding; strength is not graded here.

By UniProt entry, the sequences of proteins in these tests, tags left out. Residues count along the entry.
UniProt Q14126, residues 161-273: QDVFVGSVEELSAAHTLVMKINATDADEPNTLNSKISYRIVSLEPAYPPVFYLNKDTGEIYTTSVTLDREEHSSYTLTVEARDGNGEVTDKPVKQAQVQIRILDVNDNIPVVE

Target: Dsg2 EC2 recombinant protein (recombinant fusion protein containing the Dsg2 extracellular domain 2) (human) (UniProt Q14126)
Experiment: ELISA, plates coated with 1 ug/mL Dsg2 EC2, detection with HRP goat anti-mouse IgG Fc-gamma

B1: Dsg2 monoclonal antibody 3D4 (antibody, V domains shown)
VH: QIQLVQSGPELKKPGETVKISCKASGYTFTNYGMNWVRQAPGKALKWMVWMNTNTGESIYAEEFKGRFVFSLDTSASTAYLQINNLNNEDTATYFCARYWDTYWGQGTTLTVSS
VL: DIKMTQSPSSMYASLGERVTITCKASQDINSYLSWFQQKPGKSPKTLIYRANRLVDGVPSRFSGSGSGQDFSLTISSLEYEDMGIYYCLQYDEFPYTFGGGTKLEIK
notes: Mouse hybridoma antibody from BALB/c mice, detected with anti-mouse IgG Fc-gamma specific antibody; also called mAb 3D4
**Q.** Which binding does the source give for B1 here?
**A.** binds

B2: Dsg2 monoclonal antibody 13D3 (antibody, V domains shown)
VH: QVQLQQPGAELVKPGASVKLSCKASGYTFTSYYMYWVKQRPGQGLEWIGGINPNNGGTNFNEKFKSKATLTVDKSSSTAYMQLRSLTSEDSAVYYCIRGSGYGNWGQGTLVTVSA
VL: B1 VL with S31G, F71Y
notes: Mouse hybridoma antibody from BALB/c mice, detected with anti-mouse IgG Fc-gamma specific antibody; also called mAb 13D3
**Q.** B2 was tested. Which binding did it give?
**A.** binds
